Data as given in article PMC12670160, “A drug-repurposing screen of FDA- and EMA-approved drugs identifies two NF-κB inhibitors active against eumycetoma” (Journal of Antimicrobial Chemotherapy, 2025).
Counter-ions that a name gives are not always drawn. About 130 (2.5%) of roughly 5,300 compounds showed an effect of 50% or more. The list shows a part of the results.

tested on: M. mycetomatis strain mm55; settings: primary screen, metabolic activity vs growth control; 96 h, 2 µM; inhibitor

| SMILES | % viability |
| --- | --- |
| Cc1cccc(C)c1NC(=O)CC12CCCN1CCC2 [ONC0003275, pilsicainide hydrochloride] | 96.95% |
| Cc1ccccc1C(=O)Nc1ccc(C(=O)N2CCCC(O)c3cc(Cl)ccc32)c(C)c1 (stereo not drawn) [ONC0005015, tolvaptan opc41061] | 93.4% |
| CC1=C(C(=O)O)N2C(=O)[C@@H](NC(=O)[C@H](N)C3=CCC=CC3)C2SC1 (stereo partly drawn) [ONC0000708, cephradine] | 86.49% |
| CC[N+](CC)(CC)CCOc1ccc(/C=C/c2ccccc2)cc1 [ONC0002497, mg624] | 77% |
| O=C(Nc1cccc(C(F)(F)F)c1)Nc1cc(S(=O)(=O)NC2CC2)ccc1-c1ccsc1 [ONC0005038, agi6780] | 85.66% |
| Cc1noc2c1-c1ccccc1C(c1ccc(Cl)cc1)=N[C@H]2CC(N)=O [ONC0001113, cpi0610] | 62.21% |
| O=C(Nc1cc(Oc2cc(F)c(NC(=O)C3(C(=O)Nc4ccc(F)cc4)CC3)cc2F)ccn1)C1CC1 [ONC0000826, altiratinib] | 71.46% |
| COC(=O)[C@H](Cc1ccc([N+](=O)[O-])cc1)NC(=O)c1cccc2ccccc12 [ONC0002591, sb328437] | 66.06% |
| NC(=O)NCCN1CCN(c2cccc(C(F)(F)F)c2)CC1 [ONC0002320, fluprazine] | 77.42% |
| CC(C)OC(=O)N[C@H]1Cc2c(n(Cc3ccccn3)c3ccc(C#N)cc23)C1 [ONC0005299, ly2452473] | 119.8% |
| Cc1cccc(C)c1NC(=O)C(C)N (stereo not drawn) [ONC0002925, tocainide] | 77.81% |
| C=CCc1cccc(/C=N/NC(=O)CN2CCN(Cc3ccccc3)CC2)c1O [ONC0001284, pac1] | 110.2% |
| CC(C(=O)O)c1ccc2c(c1)[nH]c1ccc(Cl)cc12 (stereo not drawn) [ONC0000615, carprofen] | 71.55% |
| NC(=O)c1ccc(F)c2c1C[C@@H](N(C1CCC1)C1CCC1)CO2 [ONC0001469, robalzotan] | 64.45% |
| CCCCc1cc2ccccc2c(OCCN(C)C)n1 [ONC0002954, dimethisoquin] | 80.7% |
| Cc1cccc(C)c1NC(=O)c1ccc(N)cc1 [ONC0003186, ameltolide] | 85.86% |
| O=P(O)(O)CP(=O)(O)O [ONC0005455, medronicacid] | 91.06% |
| Cc1c(C)c(NCC(=O)N(C)C2CCN(Cc3ccc(C(N)=O)cc3)CC2)c(C)c(C)c1N [ONC0000175, sun11602] | 109.9% |
| CN(C)CCN1C(=O)c2cccc3cc(NC(N)=O)cc(c23)C1=O [ONC0001401, unbs5162] | 84.35% |
| Cn1cnc2[nH]c(=O)[nH]c(=O)c21 [ONC0005505, 7methylxanthine] | 146% |
| CC(C(=O)O)c1ccc(-c2ccccc2)c(F)c1 (stereo not drawn) [ONC0002806, flurbiprofen] | 86.3% |

| SMILES | % viability |
| --- | --- |
| COc1cc(N)c(Cl)cc1C(=O)OCCCN1CCCCC1 [ONC0000311, rs23597190] | 64.28% |
| OC(c1ccc(-c2ccc(CN3CCN(Cc4ccncc4)CC3)cc2)c(F)c1)(C(F)(F)F)C(F)(F)F [ONC0000776, sr2211] | 88.36% |
| NC(=O)c1cn(Cc2c(F)cccc2F)nn1 [ONC0004791, rufinamide banzel] | 112.7% |
| Cc1cc(O)c2c(c1)C(=O)c1cccc(O)c1C2=O [ONC0005265, chrysophanic acid chrysophanol] | 118.5% |
| COc1cc2c(N3CCN(C(=O)Nc4ccc(OC(C)C)cc4)CC3)ncnc2cc1OCCCN1CCCCC1 [ONC0004364, tandutinib mln518] | 94.86% |
| O=C(OCC(O)CO)c1ccccc1Nc1ccnc2cc(Cl)ccc12 (stereo not drawn) [ONC0003171, glafenine] | 88.45% |
| CC(C)(C)CCN1C[C@@H]2[C@@H](CNC(=O)c3cc(Cl)cc(Cl)c3)[C@@H]2C1 [ONC0000926, ml218] | 81.71% |
| OB1OCc2cc(F)ccc21 [ONC0001088, tavaborole] | 95.25% |
| C[C@H](CCC(=O)O)[C@H]1CC[C@H]2[C@@H]3[C@H](O)C[C@@H]4C[C@H](O)CC[C@]4(C)[C@H]3C[C@H](O)[C@]12C [ONC0001951, cholic acid] | 93.81% |
| C=C1NCC[C@@H](C(=O)O)N1 [ONC0005375, ectoinezwitterion] | 125.4% |
| CCC(=O)OCC(=O)C1(OC(=O)CC)[C@H](C)C[C@H]2C3[C@H](Cl)CC4=CC(=O)C=C[C@]4(C)[C@H]3[C@@H](O)C[C@@]21C (stereo partly drawn) [ONC0002939, alclometasonedipropionate] | 82.49% |
| COc1ccc(CCN(C)CCCN2CCc3cc(OC)c(OC)cc3CC2=O)cc1OC [ONC0000965, zatebradine hydrochloride] | 95.47% |
| COc1ccc(C2(C#N)CCC(C(=O)O)CC2)cc1OC1CCCC1 (stereo not drawn) [ONC0004902, cilomilast sb207499] | 116.1% |
| Oc1ncnc2[nH]ncc12 [ONC0003233, allopurinol] | 75.66% |
| C=C[C@]1(C)C[C@@H](OC(=O)CS[C@@H]2C[C@H]3CC[C@@H](C2)N3C)[C@]2(C)[C@H](C)CC[C@]3(CCC(=O)[C@H]32)[C@@H](C)[C@@H]1O [ONC0004457, retapamulin] | 126.7% |
| COC(=O)c1cccnc1 [ONC0005437, methylnicotinate] | 108.3% |
| CC(C)(C)NCC(O)c1cc(Cl)c(N)c(C(F)(F)F)c1 (stereo not drawn) [ONC0002152, mabuterol] | 75.72% |
| COc1ccccc1C(=O)Nc1cc2c(cc1N1CCCC1)n(C)c(=O)n2C [ONC0003127, pfi4] | 84.15% |
| CC(=O)N(O)[C@@H]1c2cc(C#N)ccc2OC(C)(C)[C@H]1O [ONC0004430, y26763] | 123.9% |
| Cc1cc(-c2cc(OC(=O)c3ccccc3)ccc2Cl)cc2nnc(Nc3ccc(OCCN4CCCC4)cc3)nc12 [ONC0002221, tg 100801] | 68.09% |
| C=CC(=O)Nc1cccc(C)c1Nc1ncc2cc(-c3c(Cl)c(OC)cc(OC)c3Cl)ccc2n1 [ONC0002060, blu9931] | 73.1% |

Part of the list above in order of length of the SMILES, largest number first:

| SMILES | % viability |
| --- | --- |
| OC(c1ccc(-c2ccc(CN3CCN(Cc4ccncc4)CC3)cc2)c(F)c1)(C(F)(F)F)C(F)(F)F [ONC0000776, sr2211] | 88.36% |
| C=CC(=O)Nc1cccc(C)c1Nc1ncc2cc(-c3c(Cl)c(OC)cc(OC)c3Cl)ccc2n1 [ONC0002060, blu9931] | 73.1% |
| C=C1NCC[C@@H](C(=O)O)N1 [ONC0005375, ectoinezwitterion] | 125.4% |

Fetched one by one from the list above, two records:

| SMILES | % viability |
| --- | --- |
| CC(C)OC(=O)N[C@H]1Cc2c(n(Cc3ccccn3)c3ccc(C#N)cc23)C1 [ONC0005299, ly2452473] | 119.8% |
| Cc1c(C)c(NCC(=O)N(C)C2CCN(Cc3ccc(C(N)=O)cc3)CC2)c(C)c(C)c1N [ONC0000175, sun11602] | 109.9% |

Next records follow.

| SMILES | % viability |
| --- | --- |
| C[C@]12CCC(=O)C=C1CC[C@@H]1[C@@H]2[C@@H](O)C[C@@]2(C)[C@H]1CC[C@]2(O)C(=O)CO [ONC0003280, hydrocortisone] | 64.75% |
| CCOC(=O)C1=C[C@@H](OC(CC)CC)[C@H](NC(C)=O)[C@@H](N)C1 [ONC0003936, oseltamivir phosphate] | 70.29% |
| COC[C@H](NC(=O)c1cnc(C)s1)C(=O)N[C@@H](COC)C(=O)N[C@@H](Cc1ccccc1)C(=O)C1(C)CO1 (stereo partly drawn) [ONC0004389, oprozomib onx 0912] | 101.4% |
| O=C(O)CC(O)C(=O)O (stereo not drawn) [ONC0003790, malicacid] | 84.28% |
| CCCCCCC[N+](CC)(CC)CCCCc1ccc(Cl)cc1 [ONC0002316, clofilium] | 77.33% |
| C=C1C(=O)O[C@@H]2/C=C(\C)CC/C=C(\C)CC[C@@H]12 [ONC0001272, costunolide] | 67.43% |
| O=C(O)[C@H](Cc1c[nH]c2ccccc12)N1C(=O)c2ccccc2C1=O [ONC0004497, rg108] | 69.63% |
| O=C(Nc1ccccc1)c1cc([N+](=O)[O-])ccc1Cl [ONC0002683, gw9662] | 79.43% |
| CC1=C(CCC(=O)O)c2cc3[nH]c(cc4nc(cc5[nH]c(cc1n2)c(C)c5C(C)O)C(C)=C4C(C)O)c(C)c3CCC(=O)O (stereo not drawn) [ONC0002122, hematoporphyrin] | 86.42% |
| C[C@H](NC(=O)C(C)(C)Oc1ccc(C(F)(F)F)cn1)[C@@H](Cc1ccc(Cl)cc1)c1cccc(C#N)c1 [ONC0002066, taranabant] | 72.16% |
| C[N+]1(CCCCC[N+]2(C)CCCC2)CCCC1 [ONC0002337, pentolinium] | 76.36% |
| CCCc1cc(=O)[nH]c(=S)[nH]1 [ONC0000512, propylthiouracil] | 70.02% |
| CCCCCCCC[N+](C)(C)Cc1ccccc1 [ONC0005462, benzyldimethyloctylammonium] | 89.48% |
| C[C@@]1(c2nc3c(C(N)=O)cccc3[nH]2)CCCN1 [ONC0004676, abt888 veliparib] | 121% |
| Cc1onc(-c2ccccc2)c1-c1ccc(S(N)(=O)=O)cc1 [ONC0004800, valdecoxib] | 106.4% |
| O=C1c2cccnc2OC[C@@H]2CCCN12 [ONC0001148, org26576] | 83.51% |
| Nc1nc(OCc2ccccc2)c2[nH]cnc2n1 [ONC0002984, o6benzylguanine] | 54.08% |
| O[C@@H](COc1cccc2ncccc12)CN1CCN([C@@H]2c3ccccc3[C@@H]3[C@H](c4ccccc42)C3(F)F)CC1 [ONC0004604, ly335979 zosuquidar trihydrochloride] | 112.7% |
| Cn1cnc(-c2cc3nccc(Oc4ccc(NC(=S)NC(=O)Cc5ccccc5)cc4F)c3s2)c1 [ONC0004601, mgcd265] | 74.95% |
| O=c1[nH]c(=O)c2[nH]c(=O)[nH]c2[nH]1 [ONC0003522, uricacid] | 130.7% |
